Laboratory results reported in patent US20230167177A1.
Where a chain is given by its changes, count along the chain named. These are yes or no findings as the source states them, for the method shown. Some entries that bind do so weakly or less than the wild type.

Assays:
[1] = target: cynomolgus CTLA-4 ECD protein (in house) (Macaca fascicularis (cynomolgus monkey)) (UniProt G7PL88); assay: ELISA, cyno CTLA4 ECD coated
[2] = target: cynomolgus CTLA-4 on transfected cells (Macaca fascicularis (cynomolgus monkey)) (UniProt G7PL88); assay: FACS on cynomolgus CTLA4 expressing cell pool

B1: W3166-z13 (Fc fusion, not shown: a dimerising Fc or GST)
chain: QVQLVESGGGLVQPGGSLRLSCAASGRTFSSYAMGWFRQAPGMEREFVASIRWSDQTTYVPNSVKGRFTISRDNSKNTLYLQMNSLRPEDTAVYYCATGPTRLSFYSGNYRTYDSWGQGTLVTVSS
**Q.** How did the binding [1] turn out when B1 was run?
**A.** binds

**Q.** And the binding [2]?
**A.** binds

B2: W3166-z17 (Fc fusion, not shown: a dimerising Fc or GST)
chain: B1 chain with L11V, M43K
**Q.** How did the binding [1] turn out when B2 was run?
**A.** binds

**Q.** And the binding [2]?
**A.** binds
